Laboratory results reported in PubChem BioAssay AID504834 (National Center for Advancing Translational Sciences (NCATS), 2011).
In all, about 320,000 compounds went through this assay and about 22,000 (6.9%) were called active. The inconclusive results got no clear call from the source; some entries with a clear call stand among them for comparison. The call rests on the fitted dose curve; in most records, active means well fitted inhibition curve with a large enough effect; inconclusive means small, poorly fitted or top-dose-only effect, or another doubt; inactive means no such curve, though single readings can be large or run the other way. Where the call is inconclusive, the potency comes from a doubtful curve fit.

Assay: Primary qHTS for delayed death inhibitors of the malarial parasite plastid, 96 hour incubation
Details: P. falciparum luciferase reporter growth; series mostly up to 28.7 µM
Summary of the method: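 Luminescence readout: decreased luciferase signal marks inhibited growth of reporter-expressing P. falciparum in infected red cells (2% hematocrit, 0.05% parasitemia final), exposed to compound two generations (96 h, 37 C, 5% CO2).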
Potency means the concentration at half of the fitted maximal effect.

Structure (SMILES)	Potency
c1ccc(-c2noc(CSc3nnnn3C3CCCCC3)n2)cc1	inactive
Cc1ccc(NS(=O)(=O)c2c(C)[nH]c(C)c2C(=O)N2CCCC2)cc1Cl	inactive
Cc1ccc(S(=O)(=O)/C(C#N)=C/c2c(N3CCN(Cc4ccccc4)CC3)nc3ccccn3c2=O)cc1	inconclusive: 11.7 µM [inhibitor, single point]
O=C(c1cccs1)c1cn(CC(=O)N2CCc3ccccc3C2)c2ccccc12	inactive
CCOC(=O)C1CCN(C(=O)c2cc3cc(Br)ccc3oc2=O)CC1	inactive
COc1ccc(CNC(=O)c2csc(Cc3ccc(OC)cc3)n2)cc1	inconclusive: 0.0928 µM [inhibitor, partial curve, poor fit]
CC(O)[C@H]1CNC(=O)C(=O)N1CCc1cc(C(F)(F)F)cc(C(F)(F)F)c1 (stereo not given in full)	inactive
COCCn1c(=S)[nH]c2cc(OC)c(OC)cc2c1=O	inconclusive: 0.0928 µM [inhibitor, full curve, poor fit]
COc1ccccc1-c1noc2ncnc(Nc3ccccc3C)c12	inconclusive: 13.1 µM [inhibitor, single point]
O=C(CNS(=O)(=O)c1ccccc1)OCc1cccc([N+](=O)[O-])c1	inconclusive: 18.5 µM [inhibitor, single point]
COC(=O)c1ccccc1N/C=C/C(=O)c1ccc(Br)cc1	inconclusive: 18.5 µM [inhibitor, single point]
O=C(CSc1nnc(Nc2ccccc2F)s1)NCc1ccco1	inconclusive: 3.7 µM [inhibitor, single point]
Cn1c(SCC(=O)Nc2cccc3ccccc23)nc(O)cc1=O	inconclusive: 18.5 µM [inhibitor, single point]
Cc1ccc(-c2nnc(Nc3ccc4c(c3)OCO4)c3ccccc23)cc1S(=O)(=O)NCCO	inconclusive: 13.1 µM [inhibitor, partial curve, poor fit]
c1coc(-c2ccc3ncnc(NCc4cccs4)c3c2)c1	inconclusive: 18.5 µM [inhibitor, single point]
CCOc1ccc(C(=O)NC2CC(=O)N(c3ccc4c(c3)OCCO4)C2)cc1 (stereo not given)	inactive
CCCNC(=O)N1c2ccccc2Sc2ccccc21	inconclusive: 11.7 µM [inhibitor, single point]
Cc1cccc(N(CC(=O)N2CCOCC2)S(C)(=O)=O)c1	inconclusive: 0.522 µM [inhibitor, full curve, poor fit]
CCN(CC)C(=O)c1ccc(N)cc1	inactive
Cc1ccc(/C(N)=N/OC(=O)CN(C)S(=O)(=O)c2ccc(C)cc2)cc1	inconclusive: 13.1 µM [inhibitor, partial curve, poor fit]

Three compounds from above, sorted by molecular weight, smallest number first:
Structure (SMILES)	Potency
Cn1c(SCC(=O)Nc2cccc3ccccc23)nc(O)cc1=O	inconclusive: 18.5 µM [inhibitor, single point]
COc1ccc(CNC(=O)c2csc(Cc3ccc(OC)cc3)n2)cc1	inconclusive: 0.0928 µM [inhibitor, partial curve, poor fit]
O=C(c1cccs1)c1cn(CC(=O)N2CCc3ccccc3C2)c2ccccc12	inactive
